This note sets out measurements from paper PMC7819943, “Rice protein-binding microarrays: a tool to detect cis-acting elements near promoter regions in rice”.

The chains behind the UniProt entries cited, without tags or fusion partners.
UniProt Q0JBA9, entry or part of it: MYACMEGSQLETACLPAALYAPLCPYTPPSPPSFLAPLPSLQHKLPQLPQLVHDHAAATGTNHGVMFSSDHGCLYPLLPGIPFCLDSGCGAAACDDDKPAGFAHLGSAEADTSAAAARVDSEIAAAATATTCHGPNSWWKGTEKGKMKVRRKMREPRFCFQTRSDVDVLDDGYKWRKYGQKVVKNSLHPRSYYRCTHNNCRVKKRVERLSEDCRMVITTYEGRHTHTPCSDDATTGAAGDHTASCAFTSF

The other results are listed elsewhere or left out.

The assay addresses OsWRKY34 (Oryza sativa, UniProt Q0JBA9 1-250). Briefly: protein-binding microarray (RPBM); PBS, 2% BSA, 51.3 ng/ul salmon testes DNA, 50 uM zinc acetate, 200 nM TF, 25 C, 1 h; high values mean tight binding. Conditions: protein: recombinant; tags: N-terminal polyhistidine and DsRed monomer fusion (pET32a); label: CyDye5-dUTP incorporated in the synthesized complementary strand; 3' TTTTT single-stranded linker to array surface; dsDNA, one strand shown. The essentials:
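Binding signal is reported as fluorescence intensity per feature (arbitrary units) from an Axon 4000B scanner. Incubation used 200 nM of each Ni–NTA-purified, N-terminally polyhistidine- and DsRed-fused transcription factor from E. coli BL21-CodonPlus on a double-stranded custom Agilent array for 1 h at 25 °C, with 50 µM zinc acetate in the buffer, followed by washing.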
As for “AACCAGCTAGTCAGTCAGTCCTACCAAATCATCCGTGCTCCGGAGTCACCTAGTGCAG”, the binding signal was 8050 fluorescence intensity (a.u.).

Regarding “GTTCTTTATGGGCGTCCTCTTTGCCTGTTTTGCTGGGTGACGGAGTCACCTAGTGCAG”, the binding signal was 9570 fluorescence intensity (a.u.).

For the sequence “CGAGAGGCCTTTTCTACGGTTTCAGTGCTCCGCTATATAGCGGAGTCACCTAGTGCAG”, the binding signal was 9560 fluorescence intensity (a.u.).

Turning to “CCTCGGTCCATCAAAGTAGCCCATCTACCGATCACACCTGCGGAGTCACCTAGTGCAG”, the binding signal was 9370 fluorescence intensity (a.u.).

Turning to “GGATTCTTTTCAGTTTCTTGTTTATTTAGTTGTTTCAGCTCGGAGTCACCTAGTGCAG”, the binding signal was 8380 fluorescence intensity (a.u.).

With “ACTAGAGTTGGAGTTGGAGTTGGGAGCTGGGAGTTGGAGTCGGAGTCACCTAGTGCAG”, the binding signal was 8570 fluorescence intensity (a.u.).

On to “CTCCAGCTCTTTTGTAGCTTCTTCATACATAGATCCACAACGGAGTCACCTAGTGCAG”, for which the binding signal was 9290 fluorescence intensity (a.u.).

“TGATCTCTTCTTTTTGCTCGCTGCAGGTGGGTCCCCAGCTCGGAGTCACCTAGTGCAG”: the binding signal was 8100 fluorescence intensity (a.u.).

For “ACCTCTCTCCTCCGCGCCGCCGACGAACCACCGCCGCCGACGGAGTCACCTAGTGCAG”, the binding signal was 9580 fluorescence intensity (a.u.).

In the case of “TAGTACAATGGGTGCCCTCAACGGAATAAACCGCTATACCCGGAGTCACCTAGTGCAG”, the binding signal is 37000 fluorescence intensity (a.u.).

As for “CGCCTCTGCAACTTCTCTTGTGTTTCTCTGAACTTGCCATCGGAGTCACCTAGTGCAG”, the binding signal is 9710 fluorescence intensity (a.u.).

Consider “GTCAGCTCGCTTTGTTTTCTGTTTTCTCGCTTTTTTTTCCCGGAGTCACCTAGTGCAG”, for which the binding signal was 14300 fluorescence intensity (a.u.).

“TTTCAATGTCAATGTACCCTGCTACTACTTGTGTTACTTCCGGAGTCACCTAGTGCAG”: the binding signal is 9310 fluorescence intensity (a.u.).

In the case of “GAAGTGGGTGAGGAGGGGTGATTGCTCGGGGACGCGTTGCCGGAGTCACCTAGTGCAG”, the binding signal was 8550 fluorescence intensity (a.u.).

On to “TAGGGTGTGTGTGCGTTTATAGGGATGAGTGTGCGCACGTCGGAGTCACCTAGTGCAG”, for which the binding signal is 8950 fluorescence intensity (a.u.).

On to “TGTGTTGCAGCTTACCTTTGTGTTTCTTGTTCTTCCATGCCGGAGTCACCTAGTGCAG”, for which the binding signal was 10100 fluorescence intensity (a.u.).

On to “GGGCTTTGACTTTTGATGTTTAAGTTTGATCAGCAAGTGACGGAGTCACCTAGTGCAG”, for which the binding signal was 8470 fluorescence intensity (a.u.).

Regarding “GCTAGCTGCTGTCTTGTGTTGTGTTGTGTTGTGTGGCATGCGGAGTCACCTAGTGCAG”, the binding signal was 8220 fluorescence intensity (a.u.).

On to “GTCAAACTAGCCACATCAGCGCCACATCAGTCAAAACCGCCGGAGTCACCTAGTGCAG”, for which the binding signal was 8320 fluorescence intensity (a.u.).

For “ATTTTTTCTGTGTTTTGTAATTCTCTGTTTTACACTTCAACGGAGTCACCTAGTGCAG”, the binding signal was 10000 fluorescence intensity (a.u.).

For “CCATCAATACAATCCCAACTGAGTTTATTGTATTTTTTTTCGGAGTCACCTAGTGCAG”, the binding signal was 8050 fluorescence intensity (a.u.).

On to “CCCGTTTTCACCCCTAGTTGTGGGCATTGTTTTTCTCATTCGGAGTCACCTAGTGCAG”, for which the binding signal was 10500 fluorescence intensity (a.u.).

Regarding “GTGTCAATTATTCGATGGGTGGGAATATTTATTTAACATTCGGAGTCACCTAGTGCAG”, the binding signal was 9250 fluorescence intensity (a.u.).

“TTCACTATTGGGTGTTTTTGTCTCGATTCACCTTCATCGTCGGAGTCACCTAGTGCAG”: the binding signal was 8840 fluorescence intensity (a.u.).

For “ATCCCTAAACCACAATACCACATATGTCGATACCTCAACTCGGAGTCACCTAGTGCAG”, the binding signal was 9100 fluorescence intensity (a.u.).

In the case of “TTGGGGTCGAGATATCCGGTTTTGTGGTTTAGGGTCATGTCGGAGTCACCTAGTGCAG”, the binding signal was 9090 fluorescence intensity (a.u.).

Consider “GAGCACGCCACCGCTGGCCGCCGTCCTTGGCTAGTCGACTCGGAGTCACCTAGTGCAG”, for which the binding signal was 8060 fluorescence intensity (a.u.).

As to “TGGGGTATCTAGTCAATCATACAATATTTTGTTTTGCTAACGGAGTCACCTAGTGCAG”, the binding signal was 8460 fluorescence intensity (a.u.).

For the sequence “TCTCTCTCTCTCTCTCTCTCGTGCGGCGAGCCACCGGAATCGGAGTCACCTAGTGCAG”, the binding signal is 8190 fluorescence intensity (a.u.).

Turning to “TTGTTGGTTGCCCTATCAATCGGAACGTCCGCGTCAGACTCGGAGTCACCTAGTGCAG”, the binding signal is 8680 fluorescence intensity (a.u.).

For the sequence “ATGATCAGCTGCTGTGGCCGTCCTTTCTTTGCGATGATGTCGGAGTCACCTAGTGCAG”, the binding signal was 10600 fluorescence intensity (a.u.).

Take “TCTTCTTATCTCAACAATTGATCCCTCAAAGGACCCTATACGGAGTCACCTAGTGCAG”: the binding signal is 8200 fluorescence intensity (a.u.).

With “TGGCCGTTGTTGTTGTTGTTGTTGTTTATTAAAGCCGCCACGGAGTCACCTAGTGCAG”, the binding signal is 8170 fluorescence intensity (a.u.).

As for “CACCCCTTTTCTCCTACTGCTATTCTTTTATCCGGTTAACCGGAGTCACCTAGTGCAG”, the binding signal is 11900 fluorescence intensity (a.u.).

As for “TGTGTTGCGGTTTTTTCTATAAATTTATTCAAACTTGAAACGGAGTCACCTAGTGCAG”, the binding signal is 8060 fluorescence intensity (a.u.).

Turning to “GAACGGTCAAACATGTGTTAAAAAGTCAACGGTGTTAAACCGGAGTCACCTAGTGCAG”, the binding signal is 9470 fluorescence intensity (a.u.).

Consider “CTCCCTTCTCACTTTCATCATCTCTCGTTCGGCCCATTTCCGGAGTCACCTAGTGCAG”, for which the binding signal was 8220 fluorescence intensity (a.u.).

Consider “TTTCTCCGTCGTCTTCCTCTACTGGTTCTATGTCTTCTCACGGAGTCACCTAGTGCAG”, for which the binding signal is 18800 fluorescence intensity (a.u.).

For “CACCCATTCGCCATCACCGCAAAATCTGCCGCCTCATTTACGGAGTCACCTAGTGCAG”, the binding signal is 8620 fluorescence intensity (a.u.).

With “CACATTCTGACACACCCGCATCTTTTGAATATCTCTATATCGGAGTCACCTAGTGCAG”, the binding signal is 8870 fluorescence intensity (a.u.).

As for “CCACTAGCCAAGGCAGCCAGCCGCCCGGCCTCCCGCCGCCCGGAGTCACCTAGTGCAG”, the binding signal is 14000 fluorescence intensity (a.u.).

“GGGTTCGATTCCCGGCTGGTGCAATTTTCGTTTTTGTCACCGGAGTCACCTAGTGCAG”: the binding signal is 8220 fluorescence intensity (a.u.).
